{"sequences": {"note": "Sequences of proteins named here, by UniProt entry; tags and fusion partners are left off. A change or cut given only in a name is not applied to a line headed by its entry.", "UniProt P42680": "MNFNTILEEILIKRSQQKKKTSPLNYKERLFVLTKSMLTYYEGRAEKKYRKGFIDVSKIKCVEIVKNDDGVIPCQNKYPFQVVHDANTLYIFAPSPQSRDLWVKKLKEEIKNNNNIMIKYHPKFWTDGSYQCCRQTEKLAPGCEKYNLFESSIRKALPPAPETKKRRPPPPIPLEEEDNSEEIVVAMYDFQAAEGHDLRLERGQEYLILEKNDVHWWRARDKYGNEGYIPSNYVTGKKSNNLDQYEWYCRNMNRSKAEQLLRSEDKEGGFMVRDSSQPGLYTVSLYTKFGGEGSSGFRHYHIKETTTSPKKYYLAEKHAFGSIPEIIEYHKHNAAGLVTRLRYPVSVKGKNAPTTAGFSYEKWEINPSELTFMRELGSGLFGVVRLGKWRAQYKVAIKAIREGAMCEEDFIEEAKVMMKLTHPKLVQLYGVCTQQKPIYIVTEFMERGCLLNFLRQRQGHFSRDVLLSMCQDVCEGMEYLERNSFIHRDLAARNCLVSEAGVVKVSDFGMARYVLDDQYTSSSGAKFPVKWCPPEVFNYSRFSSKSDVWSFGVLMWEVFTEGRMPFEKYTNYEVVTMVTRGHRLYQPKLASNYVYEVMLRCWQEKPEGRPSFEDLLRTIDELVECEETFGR"}, "source": "the supplement of paper PMC12823440", "about": "“Inhibitors supercharge kinase turnover through native proteolytic circuits” (Nature, 2025)", "note": "Where a name gives a salt, the structure may show the parent alone. Some of the results follow. The calls rarely recur for the same compound in another form.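 In K562 cells expressing nanoluciferase-fused kinases, luminescence was recorded at 4 h intervals between 2 and 18 h, normalized as percent of control with DMSO at 100% and a positive control at 0%. A significant (2 sigma) signal drop marks a time point as decreased. The authors' rule for a hit is not shown and takes in more than the number of time points.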"}
{"target": "SYK (UniProt P43405)", "assay": "number of time points (of 5) at which kinase-Nluc abundance scored as decreased, DMSO-normalised (count); higher = more persistent destabilization", "details": "K562; 2-18 h"}
{"compound": "O=c1cc(-c2ccc(O[C@@H]3O[C@H](CO)[C@@H](O)[C@H](O)[C@H]3O)cc2)oc2cc(O)c([C@@H]3O[C@H](CO)[C@@H](O)[C@H](O)[C@H]3O[C@@H]3OC[C@H](O)[C@H](O)[C@H]3O)c(O)c12", "note": "[Vaccarin] (10 µM)", "number of time points": 0}
{"compound": "Nc1ccc(Sc2nc3ccccc3s2)c(Cl)c1", "note": "[KRAS inhibitor-9] (10 µM)", "number of time points": 0}
{"compound": "COc1ccc2cc1Oc1ccc(cc1)C[C@H]1c3cc(c(OC)cc3CCN1C)Oc1c(O)c(OC)cc3c1[C@H](C2)N(C)CC3", "note": "[Fangchinoline] (2.5 µM)", "number of time points": 0}
{"compound": "Nc1nccc(Oc2ccc3c(C(=O)Nc4cccc(C(F)(F)F)c4)cccc3c2)n1", "note": "(10 µM)", "number of time points": 0}
{"compound": "CN1C(=O)N[C@@H](Cc2c[nH]c3c(Cl)cccc23)C1=O", "note": "[Necrostatin 2 (S enantiomer)] (10 µM)", "number of time points": 0}
{"compound": "Cc1ncc(-c2cc(F)c(O)c(F)c2)cc1-c1cc(F)c(O)c(F)c1", "note": "(10 µM)", "number of time points": 0}
{"compound": "N=C(NC(=N)N1CCCC1)Nc1ccc(OC(F)(F)F)cc1", "note": "(10 µM)", "number of time points": 0}
{"target": "TEC (UniProt P42680)", "assay": "number of time points (of 5) at which kinase-Nluc abundance scored as decreased, DMSO-normalised (count); higher = more persistent destabilization", "details": "K562; 2-18 h"}
{"compound": "COc1ccc(Br)c(C=O)c1O", "note": "[6-Bromo-2-hydroxy-3-methoxybenzaldehyde] (10 µM)", "number of time points": 0}
{"compound": "O=C1C=CC2=C3c4cc(O)c(O)cc4CC3(O)COC2=C1O", "note": "(stereo unspecified) [Hematein] (10 µM)", "number of time points": 0}
{"compound": "Cc1cccc(CC(=O)N2CCc3c2ccc(-c2cn(C)c4ncnc(N)c24)c3F)n1", "note": "(10 µM)", "number of time points": 0}
{"compound": "COCCOc1cnc2ccn([C@H](C)c3nnc4c(F)cc(-c5cnn(C)c5)cn34)c(=O)c2c1", "note": "(10 µM)", "number of time points": 0}
{"compound": "Cn1cc(C2=C(c3ccc(Cl)cc3Cl)C(=O)NC2=O)c2ccccc21", "note": "(10 µM)", "number of time points": 0}
{"compound": "COc1cc(N2CCC(N3CCN(C)CC3)CC2)ccc1Nc1ncnc(Nc2ccccc2S(=O)(=O)C(C)C)n1", "note": "(10 µM)", "number of time points": 0}
{"compound": "COc1c(Nc2ncc(Cl)c(N[C@H]3[C@@H](C(N)=O)[C@@H]4C=C[C@H]3C4)n2)ccc2c1CC[C@@H](N1CCOCC1)CC2", "note": "(10 µM)", "number of time points": 0}
{"compound": "Cc1ccc(NC(=O)N2CCN(c3nc(N)nc4sc(-c5cccnc5)nc34)CC2)cc1", "note": "[PI4KIII beta inhibitor 3] (10 µM)", "number of time points": 0}
{"compound": "CNc1cc2c(Nc3cccc(Br)c3)ncnc2cn1", "note": "(10 µM)", "number of time points": 0}
{"compound": "CC(C)n1c(CO)nc2c(F)cc(-c3nc(Nc4ccc(CN5CCNCC5)cn4)ncc3F)cc21", "note": "(10 µM)", "number of time points": 3}
{"compound": "CN1CCC(Nc2ccc(C(=O)Nc3cc(-c4ccc5c(c4)OCO5)[nH]n3)cc2)CC1", "note": "(10 µM)", "number of time points": 0}
{"compound": "CNC(=O)CN1CCC(Oc2cc3c(Nc4cccc(Cl)c4F)ncnc3cc2OC)CC1", "note": "[Sapitinib] (10 µM)", "number of time points": 0}
{"compound": "O=C(O)c1c[nH]c2cc(Cl)c(-c3ccc(C4(O)CCC4)cc3)cc12", "note": "(10 µM)", "number of time points": 0}
{"compound": "COc1cc(N2CCC(O)CC2)ccc1Nc1nc(Nc2ccccc2S(=O)(=O)C(C)C)c2[nH]cnc2n1", "note": "(10 µM)", "number of time points": 0}
{"compound": "O=c1c(O)c(-c2ccc(O)c(O)c2)oc2cc(O)c(O)c(O)c12", "note": "[Quercetagetin] (10 µM)", "number of time points": 0}
{"compound": "Cc1ncsc1-c1ccc(CNC(=O)[C@@H]2C[C@@H](O)CN2C(=O)[C@@H](NC(=O)COCCOc2ccc(-c3cc(Nc4ccc(OC(F)(F)F)cc4)ncn3)cc2)C(C)(C)C)cc1", "note": "(2.5 µM)", "number of time points": 1}
{"compound": "COc1cc(Nc2ccnc3ccc(Br)cc23)cc(OC)c1OC", "note": "(2.5 µM)", "number of time points": 0}
{"compound": "Cc1ccc2c(NS(=O)(=O)c3ccccc3Cl)cccc2c1Oc1ncccc1-c1ccnc(N[C@H]2CCCNC2)n1", "note": "(2.5 µM)", "number of time points": 0}
{"compound": "CC(C)c1cc2c(c(O)c1O)[C@@]13CCCC(C)(C)[C@@H]1C[C@@H]2OC3=O", "note": "[Carnosol] (2.5 µM)", "number of time points": 0}
{"compound": "Cc1nc2c(NCc3cccc(S(C)(=O)=O)c3)nccn2c1-c1ccc(O)c(F)c1", "note": "(10 µM)", "number of time points": 0}
{"compound": "CC(C)n1cnc2c(Nc3cccc(Cl)c3)nc(N[C@H]3CCCC[C@@H]3N)nc21", "note": "(2.5 µM)", "number of time points": 0}
{"compound": "O=c1cc(N2CCOCC2)oc2c(-c3cccc4c3sc3ccccc34)cccc12", "note": "(10 µM)", "number of time points": 0}
{"compound": "C[C@@H]1COC(Nc2ccc3ncnc(Nc4ccc(OCc5nccs5)c(Cl)c4)c3c2)=N1", "note": "[Varlitinib] (10 µM)", "number of time points": 0}
{"compound": "Cc1cncc2cccc(S(=O)(=O)N3CCCNC[C@@H]3C)c12", "note": "[H-1152 (dihydrochloride)] (10 µM)", "number of time points": 0}
{"compound": "CCC[C@H](C)Oc1nc(N)c2[nH]c(=O)n(CCCCCN3CCCCC3)c2n1", "note": "(10 µM)", "number of time points": 0}
{"compound": "CC(C)(Oc1ccc(Cl)cc1)C(=O)Nc1ccc(OCc2ccc(C#N)cc2)cc1", "note": "[AMPK activator 4] (10 µM)", "number of time points": 0}
{"compound": "Cc1cc(N2CCOCC2)ccc1Nc1nc(NC2CCCCC2)c2[nH]cnc2n1", "note": "(10 µM)", "number of time points": 0}
{"compound": "CC(ONC(=O)c1cc(C(F)(F)F)cc(C(F)(F)F)c1)C(=O)Nc1ccc(Cl)cc1", "note": "(stereo unspecified) (2.5 µM)", "number of time points": 0}
{"compound": "O=S(=O)(c1ccc(O)cc1O)N1Cc2cc(O)cc(O)c2C1", "note": "(10 µM)", "number of time points": 0}
{"compound": "CN1CCN(c2ccc(-n3cc(-c4ccncc4OCC4CCNCC4)cn3)cc2)CC1", "note": "[MELK-8a (hydrochloride)] (10 µM)", "number of time points": 2}
{"compound": "CCCCC(=O)OCC(=O)[C@]1(O)Cc2c(O)c3c(c(O)c2[C@@H](O[C@H]2C[C@H](NC(=O)C(F)(F)F)[C@H](O)[C@H](C)O2)C1)C(=O)c1c(OC)cccc1C3=O", "note": "[Valrubicin] (10 µM)", "number of time points": 0}
{"compound": "CC(C)=CCC[C@](C)(O[C@@H]1O[C@H](CO[C@@H]2O[C@H](CO)[C@@H](O)[C@H](O)[C@H]2O)[C@@H](O)[C@H](O)[C@H]1O)[C@H]1CC[C@]2(C)[C@@H]1[C@H](O)C[C@@H]1[C@@]3(C)CC[C@H](O[C@@H]4O[C@H](CO)[C@@H](O)[C@H](O)[C@H]4O[C@@H]4O[C@H](CO)[C@@H](O)[C@H](O)[C@H]4O)C(C)(C)[C@@H]3CC[C@]12C", "note": "[Ginsenoside Rb1] (10 µM)", "number of time points": 0}
{"compound": "O=c1cc(-c2ccc(O[C@@H]3O[C@H](CO)[C@@H](O)[C@H](O)[C@H]3O)cc2)oc2cc(O)c([C@@H]3O[C@H](CO)[C@@H](O)[C@H](O)[C@H]3O[C@@H]3OC[C@H](O)[C@H](O)[C@H]3O)c(O)c12", "note": "[Vaccarin] (10 µM)", "number of time points": 0}
{"compound": "Nc1ccc(Sc2nc3ccccc3s2)c(Cl)c1", "note": "[KRAS inhibitor-9] (10 µM)", "number of time points": 0}
{"compound": "COc1ccc2cc1Oc1ccc(cc1)C[C@H]1c3cc(c(OC)cc3CCN1C)Oc1c(O)c(OC)cc3c1[C@H](C2)N(C)CC3", "note": "[Fangchinoline] (2.5 µM)", "number of time points": 0}
{"compound": "Nc1nccc(Oc2ccc3c(C(=O)Nc4cccc(C(F)(F)F)c4)cccc3c2)n1", "note": "(10 µM)", "number of time points": 2}
{"compound": "CN1C(=O)N[C@@H](Cc2c[nH]c3c(Cl)cccc23)C1=O", "note": "[Necrostatin 2 (S enantiomer)] (10 µM)", "number of time points": 0}
{"compound": "Cc1ncc(-c2cc(F)c(O)c(F)c2)cc1-c1cc(F)c(O)c(F)c1", "note": "(10 µM)", "number of time points": 0}
{"compound": "N=C(NC(=N)N1CCCC1)Nc1ccc(OC(F)(F)F)cc1", "note": "(10 µM)", "number of time points": 0}
